Assay results as given in publication PMC9584953.

Protein sequences, listed by entry. Tags and fused reporters are not part of them. Lines headed by an entry give the natural chain unless they say otherwise; changes in a name come on top.
UniProt E1W823: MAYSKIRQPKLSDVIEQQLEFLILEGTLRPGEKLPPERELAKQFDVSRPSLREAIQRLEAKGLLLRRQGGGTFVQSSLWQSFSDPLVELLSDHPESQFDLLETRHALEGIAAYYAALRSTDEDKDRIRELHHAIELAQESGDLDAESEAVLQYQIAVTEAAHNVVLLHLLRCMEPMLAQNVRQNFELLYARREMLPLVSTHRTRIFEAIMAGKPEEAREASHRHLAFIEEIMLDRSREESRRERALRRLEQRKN
UniProt P41030: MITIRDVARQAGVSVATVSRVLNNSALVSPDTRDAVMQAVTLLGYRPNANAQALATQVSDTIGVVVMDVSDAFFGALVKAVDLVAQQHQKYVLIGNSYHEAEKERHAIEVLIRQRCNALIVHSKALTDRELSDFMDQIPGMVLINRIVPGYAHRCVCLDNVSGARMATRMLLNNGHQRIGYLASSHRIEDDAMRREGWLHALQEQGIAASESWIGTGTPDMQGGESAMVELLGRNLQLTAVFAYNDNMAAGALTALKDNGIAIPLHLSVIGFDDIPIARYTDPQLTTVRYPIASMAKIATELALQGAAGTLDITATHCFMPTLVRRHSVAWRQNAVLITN

Assays:
Experiment in all cases: pull-down; GST fusion (bait) on Glutathione-Sepharose 4B, 6His-tagged prey, 50 mM Tris-HCl pH 7.5, 4 °C, wash with 50 mM NaCl, elution with 500 mM NaCl, anti-6His immunoblot; both purified
[1] = target: GST-NarL (Salmonella enterica serovar Typhimurium)
[2] = target: GST-PdhR (Salmonella enterica serovar Typhimurium) (UniProt E1W823)
[3] = target: GST-GalS (Salmonella enterica serovar Typhimurium) (UniProt P41030)
[4] = target: GST-GntR (Salmonella enterica serovar Typhimurium)
[5] = target: GST-YjfQ (Salmonella enterica serovar Typhimurium)

Measured: binding

TrxA-6His (recombinant thioredoxin, wild type) (from UniProt P0AA28 1-109)
binds: all assays above

No constants are given. Whether binding was seen depends on the method and setting. Binding can be weak; no strength is given.
